Assay results reported in PubChem BioAssay AID1508600 (Functional Genomics Laboratory (NCATS/FGL), 2020).
The campaign covered roughly 53,000 sequences. About 3,700 (7%) were called active.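 Rule for the calls: active = gene knockdowns whose robust z-score for IL-1 alpha signal is at least 2 or at most -2, so actives lie on both sides; inactive = the rest.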 Some of the results follow.

experiment: Components of the Cytosolic LPS Sensing Pathway: Gene Identification via Genome-wide siRNA Screen; details: RAW264.7 macrophages, IL-1a HTRF, actives lie on both sides, screened at 100 nM (by protocol), cells primed 5 h with Pam3CSK4 first;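 note: robust z of the log signal after scaling to non-targeting control siRNA wells of the plate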
In short: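 Cells (RAW264.7, 1×10^4 per well) were transfected with siRNA at 100 nM and cultured 48h at 37 degrees C. Pam3CSK4 was added for 5 hours; LipidA transfection followed for 24 hour. IL-1a was then measured by HTRF.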

Sequence	z-score
GGCCACAGUAAUGGGAAAUTT against Cga	inactive: -0.208
CCUGUGACUCUAUCCAUCATT against Dsg1c	inactive: 0.424
CGAAAGUGAUCUUUGGAGCTT against Fpr-rs6	inactive: -1.9
CCGAGAACAGUUGAAGAAGTT against Srbd1	inactive: 0.174
GGAAGAAAGUGAGCCUUGUTT against Senp6	active: -2.14
GUGUACGAGCCUACCGUUATT against Cox14	inactive: 1.05
GGAGAGAACUGGAAGAGAGTT against Cwc15	inactive: 0.729
GCCACCGAACCUAUAAAGCTT against Scd4	inactive: 0.265
CCUAACUUCAGAACUGAAATT against Sh3gl3	inactive: -0.806
GGCCCAGCAGACAACUUUATT against Sgca	inactive: 0.797
UGCCCUUCCUAUUUUAUAATT against Ly6k	inactive: -0.378
GGGAUCAAAUGUCUUUCCUTT against Wdr19	inactive: -0.794
CGGACGAUUCGUGUCAAUUTT against Ppie	inactive: 0.619
GGCACUUACUGUGAAAUUGTT against Tm9sf3	inactive: -0.151
CGAACCGAACACAUAUAAATT against Scnn1a	inactive: 0.303
GCACUGUUCUCAAAGUUAATT against Ddx3x	inactive: -0.248
GCUGAAAGUAUUCAUGUAATT against Sec13	inactive: -1.6
GGCCCUUCCAGAAGAUACATT against Speer3	inactive: -1.1
CCAUUACUCGCAUCUGGGATT against Tfap2c	inactive: 0.561
CGAUCCAACCAGAUGAACATT against Ralgps1	inactive: 0.383
GGUUAUGGAAGAAAUUGCUTT against Tekt1	inactive: 0.148
GGUCAAUUCGGAGGUCCAGTT against Zfp385a	inactive: -0.51
GGAAGAUGUCCAAACCCGCTT against Tspan4	inactive: 0.671
GGCUGAGAUUAUCACUGUCTT against Vps25	inactive: -0.518
GGACAUGUACAGUUUAUUGTT against Cacna1a	inactive: 0.723
GGAGUACUUCGUGUUCCGGTT against Tprgl	inactive: -0.945
GGAAAGAUGUCAAAGAAAUTT against Gnat2	inactive: -1.14

Sequence	z-score
GCAGUGCACAGAAAUGGAATT against Olfr12	inactive: -1.05
GGAGAUGGCUAUAUUCUGATT against Lipa	inactive: 0.0668
GGAGAAGGAAUAAGUUUUGTT against Synj2bp	inactive: 1.07
CCACUUGUAGACUUGAUUUTT against Jag1	inactive: 0.618
GGUGGAAGAUAUCAACUAGTT against Ube2k	inactive: 1.27
GGAGGCACGAAUUGCUGCUTT against Gadd45gip1	inactive: 0.178
CCUGUCCUCAUGACAUGAUTT against Sypl2	inactive: 0.916
GCAUAUGGAGCAGUCAUUGTT against Gm6116	inactive: -0.627
GCUGUUAACAGCACAACCATT against Slc36a2	inactive: 1.3
GGGUGACCUUUCCAGAUGATT against Cldn13	inactive: -0.846
CCAAGUAUAAGAUCGUGACTT against Nod1	inactive: -0.822
GAUGCUGUAGUCUUGUGAGTT against Lce1a2	inactive: 0.708
CCCAUAUUAAUUAUGGCGUTT against Hadha	inactive: -0.189
CCUACUCUAUCCCAAGGUCTT against Spatc1l	inactive: -1.02
GGAGAUCCCAACCACGGAUTT against Otor	inactive: 1.52
CGAUAACAGCUGUUAACGUTT against Mttp	inactive: 1.9
GGGACAACAUUCAAAGGUCTT against Hdgfl1	inactive: -0.322
CGUGGGAUUUAAUGAUCAATT against Nid2	inactive: 1.09
CGGCCUGACAUCAACCUUGTT against Fam193b	inactive: -0.915
GCAUCCAUCAAAUCAAAAUTT against Met	active: 3.03
GGAAUUUUGACAGAAAACCTT against Cradd	inactive: 0.343
GGACAGUAAGGAUAAAAGCTT against Hsd3b3	inactive: -0.883
GGACGUGGUCCAUAGACCATT against Cd276	inactive: 1.9
GGAAGAAACUGUAUGAAAGTT against Mycs	inactive: -0.204
GGGCUUGUGUAAAGUGGAUTT against Kin	inactive: 0.298
GGAAGCUAGAUUUUGAGUATT against Vmn1r66	inactive: 0.769

3 entries from above, as labelled records:
GAUGCUGUAGUCUUGUGAGTT against Lce1a2
  z-score: inactive: 0.708
CCUACUCUAUCCCAAGGUCTT against Spatc1l
  z-score: inactive: -1.02
CGUGGGAUUUAAUGAUCAATT against Nid2
  z-score: inactive: 1.09
